In PubChem BioAssay AID2685 (National Center for Advancing Translational Sciences (NCATS), 2010):
The other results are listed elsewhere or left out. The main result of the screen is listed elsewhere. These columns were measured beside it and carry no call. Most of these compounds were active or inconclusive in the main read-out, so they are no random draw. Potencies come from curve fits of mixed quality, noted in brackets.

Assay: qHTS Assay for Lipid Storage Modulators in Drosophila S3 Cells;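 as to cell number change: cells counted by Cell Tracker Red CMTPX staining in the red channel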
Conditions: BODIPY lipid droplet fluorescence, 18-24 h; for cell number change: measured here: cell count max response, cells fed with added oleic acid
Method in brief: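 Laser-scanning cytometry quantifies lipid droplet accumulation (500–530 nm total intensity; droplet/cell object ratio) in oleic acid-fed (400 uM added) Drosophila S3 cells treated with a concentration series. 20 uM Triacsin C defined 100% inhibition.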

[1] = measured here: lipid fluorescence (Fed channel) AC50, cells fed with added oleic acid
[2] = measured here: cell number channel AC50, cells fed with added oleic acid

Cc1ccc(/C=C2/Sc3ccc(C(=O)N4CCN(c5ccccn5)CC4)cc3NC2=O)cc1
cell number change: 9.48%
AC50 [1]: 18.4 µM [falling, single point]

CCCn1c(N)c(N(CCOC)C(=O)c2ccc(N3CCCC3=O)cc2)c(=O)[nH]c1=O
cell number change: -17.7%

O=C(N1CCNCC1)N1CCOCC1
cell number change: -72.8%
AC50 [2]: 16.4 µM [falling, partial curve]
AC50 [1]: 6.51 µM [falling, single point]

COC(=O)c1ccc2c(c1)NC(=O)CS2
cell number change: 24.1%

COc1ccc(CNc2ccc3cn[nH]c3c2)c(OC)c1OC
cell number change: 0.979%

CCOc1ccc(NC(=O)c2nccnc2CO)cc1
cell number change: -5.16%
AC50 [1]: 6.51 µM [rising, single point]

Cc1ccc(-n2ncc3c2CCCC3NC(=O)c2cnccn2)cc1C (stereo not drawn)
cell number change: -5.38%
AC50 [2]: 0.291 µM [falling, partial curve, poor fit]
AC50 [1]: 0.231 µM [falling, full curve]

COc1cccc(NS(=O)(=O)c2ccc3c(c2)CC(=O)N3)c1
cell number change: -11.8%
AC50 [1]: 6.51 µM [falling, single point]

COC(=O)COc1ccc(C2Nc3c(Cl)ccc(C(=O)O)c3C3C=CCC32)cc1 (stereo not drawn)
AC50 [2]: 6.51 µM [rising, partial curve, poor fit]
AC50 [1]: 4.61 µM [rising, full curve, poor fit]

CCc1cc2c(SCC(=O)c3ccc(Cl)s3)ncnc2s1
cell number change: 30.2%
AC50 [2]: 6.51 µM [rising, single point]
AC50 [1]: 7.31 µM [rising, single point]

CC1CC(C)CN(C(=O)C2CCCN(S(=O)(=O)c3cccc4nonc34)C2)C1 (stereo not drawn)
cell number change: -10.2%
AC50 [1]: 2.59 µM [rising, partial curve]

CS(=O)(=O)c1cccc(C(=O)Nc2cccc(-c3nc4ccccc4[nH]3)c2)c1
AC50 [1]: 8.2 µM [falling, partial curve]

O=C(CSCc1ccccc1)N1CCN(c2ccc(F)cc2)CC1
cell number change: -31.5%
AC50 [2]: 5.8 µM [falling, full curve, poor fit]
AC50 [1]: 13 µM [falling, partial curve]

CCOC(=O)C1=C(COC(=O)c2nc(Cl)ccc2Cl)NC(=O)NC1C (stereo not drawn)
cell number change: 7%

CNC(=O)c1nc(C)c(C2(C)CC(c3ccccc3)=NO2)s1 (stereo not drawn)
cell number change: 6.16%
AC50 [1]: 25.9 µM [rising, partial curve, poor fit]

O=S(=O)(Nc1cccc2c1CCCC2)c1cccc(C(F)(F)F)c1
cell number change: -30.3%
AC50 [2]: 29.1 µM [falling, single point]
AC50 [1]: 29.1 µM [falling, single point]

CC(C)(C)N=C1NN=C(c2ccc(S(=O)(=O)N3CCCCC3)cc2)CS1
cell number change: -67%
AC50 [2]: 29.1 µM [falling, single point]

CC(C)C(NC(=O)CCN1C(=O)c2ccccc2C1=O)c1ccccc1 (stereo not drawn)
cell number change: 38.6%
AC50 [2]: 4.61 µM [rising, partial curve, poor fit]

CCN(CC)S(=O)(=O)c1ccc(N/N=C/c2ccc(O)cc2)nc1
cell number change: 13.7%
AC50 [1]: 6.51 µM [rising, single point]

COc1cccc(N2CCN(C(=O)C3CCN(S(=O)(=O)c4ccc5c(c4)oc(=O)n5C)CC3)CC2)c1
cell number change: -38.9%

CCOC(=O)C1CCCN(S(=O)(=O)c2cn(C)c(=O)n(C)c2=O)C1 (stereo not drawn)
AC50 [1]: 0.092 µM [falling, full curve]

Cc1ccc2c(C(=O)CN3CCCCC3)c(C)[nH]c2c1
cell number change: 34.5%
AC50 [2]: 23.1 µM [rising, single point]

FC(F)(F)c1cccc(N2CCc3cn[nH]c32)c1
AC50 [1]: 6.51 µM [rising, single point]

Cc1ccc2c(c1)c1ccc3c(c1n2C)C(=O)C=CC3=O
cell number change: -62.8%
AC50 [2]: 18.4 µM [falling, partial curve, poor fit]

CC(C)(Oc1ccc(Cl)cc1)C(=O)N(Cc1ccccc1)c1ccccn1
AC50 [1]: 0.0731 µM [falling, full curve, poor fit]

CNc1nc(C)c(C#N)c(-c2ccccc2)c1C(C)=O
cell number change: -11.4%
AC50 [1]: 0.291 µM [rising, partial curve, poor fit]

CN1C(=O)c2cccc3c(S(=O)(=O)Nc4ccccn4)ccc1c23
cell number change: -30.5%
AC50 [2]: 20.6 µM [falling, single point]
AC50 [1]: 16.4 µM [falling, single point]

O=C(Nc1ccccc1C(=O)N1CCCCCC1)c1ccc(F)cc1
cell number change: 31.2%
AC50 [2]: 29.1 µM [rising, single point]
AC50 [1]: 29.1 µM [rising, single point]

CCCN(CC(=O)Nc1ccc(C(N)=O)cc1)CC(=O)Nc1ccc(F)c(F)c1F
cell number change: 284%
AC50 [2]: 29.1 µM [rising, partial curve]

CC1Sc2ccc(Cl)cc2-c2nc(N)ncc21 (stereo not drawn)
cell number change: -37.2%
AC50 [2]: 0.082 µM [falling, full curve, poor fit]
